No constants are given. Whether binding was seen depends on the method and setting. In cells and extracts the contact can be indirect. Some entries that bind do so weakly or less than the wild type.

Protein sequences, listed by entry. Tags and fused reporters are not part of them. Residues count along the entry.
UniProt Q9EP73, residues 19-290: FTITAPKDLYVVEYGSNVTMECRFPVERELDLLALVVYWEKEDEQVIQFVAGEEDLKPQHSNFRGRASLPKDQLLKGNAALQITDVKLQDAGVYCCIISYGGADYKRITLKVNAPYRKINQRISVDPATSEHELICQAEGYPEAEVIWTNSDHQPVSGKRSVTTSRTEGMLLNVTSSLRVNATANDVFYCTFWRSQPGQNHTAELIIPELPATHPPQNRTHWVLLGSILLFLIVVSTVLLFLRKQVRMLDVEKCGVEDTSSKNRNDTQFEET
UniProt Q8VI36: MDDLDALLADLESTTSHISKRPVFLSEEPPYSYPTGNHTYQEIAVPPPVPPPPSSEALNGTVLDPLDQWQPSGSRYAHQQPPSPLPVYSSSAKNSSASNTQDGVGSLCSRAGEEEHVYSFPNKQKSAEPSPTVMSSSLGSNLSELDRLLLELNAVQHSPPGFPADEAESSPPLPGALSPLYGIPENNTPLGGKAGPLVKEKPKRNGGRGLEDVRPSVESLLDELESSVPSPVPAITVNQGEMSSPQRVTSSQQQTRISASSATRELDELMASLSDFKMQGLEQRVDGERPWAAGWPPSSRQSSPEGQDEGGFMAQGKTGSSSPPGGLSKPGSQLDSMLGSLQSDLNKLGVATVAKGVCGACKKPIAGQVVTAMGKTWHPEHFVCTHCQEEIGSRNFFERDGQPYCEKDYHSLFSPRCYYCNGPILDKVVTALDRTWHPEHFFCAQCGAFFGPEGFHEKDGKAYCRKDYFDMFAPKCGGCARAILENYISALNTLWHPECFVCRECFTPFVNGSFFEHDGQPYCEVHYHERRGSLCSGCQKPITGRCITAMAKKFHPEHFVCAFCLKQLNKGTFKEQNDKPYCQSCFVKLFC
UniProt P42227: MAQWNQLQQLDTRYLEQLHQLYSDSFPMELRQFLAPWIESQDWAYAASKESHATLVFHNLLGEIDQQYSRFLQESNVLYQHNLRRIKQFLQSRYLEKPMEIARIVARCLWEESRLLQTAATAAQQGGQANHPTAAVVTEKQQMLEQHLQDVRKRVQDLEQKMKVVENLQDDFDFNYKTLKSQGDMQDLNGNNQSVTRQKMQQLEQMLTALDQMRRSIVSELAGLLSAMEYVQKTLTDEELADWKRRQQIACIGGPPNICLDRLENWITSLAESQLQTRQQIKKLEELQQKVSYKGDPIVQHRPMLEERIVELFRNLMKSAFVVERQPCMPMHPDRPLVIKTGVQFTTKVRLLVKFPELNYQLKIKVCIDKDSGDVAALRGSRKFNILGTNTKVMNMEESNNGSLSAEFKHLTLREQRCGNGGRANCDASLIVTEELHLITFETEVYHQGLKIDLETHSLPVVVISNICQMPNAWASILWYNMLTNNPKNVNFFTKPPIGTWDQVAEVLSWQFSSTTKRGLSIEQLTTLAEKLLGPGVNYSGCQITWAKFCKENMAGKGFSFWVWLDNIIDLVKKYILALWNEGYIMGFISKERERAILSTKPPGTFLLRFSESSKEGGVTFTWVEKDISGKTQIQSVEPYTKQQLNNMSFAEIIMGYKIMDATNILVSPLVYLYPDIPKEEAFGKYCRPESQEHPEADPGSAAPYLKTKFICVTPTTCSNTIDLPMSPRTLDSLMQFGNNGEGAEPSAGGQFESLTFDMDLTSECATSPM

The target of this assay is WT PD-L1 (programmed death ligand 1) tagged with GFP (mouse) (UniProt Q9EP73). As to the kind of experiment: co-IP; PD-L1-GFP precipitated from SVEC4-10 lysate with GST-tagged anti-GFP nanobody on GST beads, Western blot; cells untreated or treated with sodium fluoride (1 mM), sodium vanadate (0.5 mM), TNFα (100 ng/ml), IFNα (500 U/ml) or both cytokines, 30 min or overnight.

As for Paxillin (from UniProt Q8VI36 1-591), the binding result is on record as “binds”. Take “STAT3 phosphorylated on Ser727 (from UniProt P42227 1-770)”: the binding entry is “binds”. Next, “STAT3 phosphorylated on Tyr705 (from UniProt P42227 1-770)”: “binds”; “Signal transducer and activator of transcription 3 (from UniProt P42227 1-770)”: “binds”.

Source of the values: article PMC9761386.
